Measurements from the supplement of paper PMC8728848.
This is one part of the list.

Assays:
Test in all cases: glycan array binding signal (z-score within array); higher = stronger binding
Settings in all cases: glycan notation: IUPAC condensed, linker removed
[1] = target: GalNAc(a1-3)GalNAc(b1-3)Gal(a1-4)Gal(b1-4)GlcNAc
Summary of the method: (§1)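 Glycan array binding is given as a within-array Z-score, which can be read as non-binding when negative. The arrays, 3228 of them, came from the Consortium for Functional Glycomics database and were retained only where the protein sequence was available. Z-scores were averaged across arrays of the same protein sequence at different concentrations or buffers and across linkers.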

GalNAc(b1-3)Gal = target: GalNAc(b1-3)Gal
Summary of the method: as §1

[2] = target: GalNAc(b1-3)Gal(a1-4)Gal(b1-4)GlcNAc
Summary of the method: as §1

[3] = target: GalNAc(b1-3)Gal(a1-4)Gal(b1-4)GlcNAc(b1-3)Gal(b1-4)Glc
Summary of the method: as §1

[4] = target: GalNAc(b1-3)Gal(a1-6)Gal(b1-4)Glc
Summary of the method: as §1

GalNAc(b1-3)GalNAc = target: GalNAc(b1-3)GalNAc
Summary of the method: as §1

GalNAc(b1-4)Gal(b1-4)Glc = target: GalNAc(b1-4)Gal(b1-4)Glc
Summary of the method: as §1

GalNAc(b1-4)GlcNAc = target: GalNAc(b1-4)GlcNAc
Summary of the method: as §1

[5] = target: GalNAc(b1-4)GlcNAc(b1-2)Man(a1-3)[GalNAc(b1-4)GlcNAc(b1-2)Man(a1-6)]Man(b1-4)GlcNAc(b1-4)GlcNAc
Summary of the method: as §1

GalNAc(b1-4)GlcNAc6S = target: GalNAc(b1-4)GlcNAc6S
Summary of the method: as §1

GalNAc(b1-6)GalNAc = target: GalNAc(b1-6)GalNAc
Summary of the method: as §1

GalNAc3S(b1-4)GlcNAc = target: GalNAc3S(b1-4)GlcNAc
Summary of the method: as §1

GalNAc3S(b1-4)GlcNAc3S = target: GalNAc3S(b1-4)GlcNAc3S
Summary of the method: as §1

GalNAc4S6S(b1-4)GlcNAc = target: GalNAc4S6S(b1-4)GlcNAc
Summary of the method: as §1

GalNAc6S(b1-4)GlcNAc = target: GalNAc6S(b1-4)GlcNAc
Summary of the method: as §1

Glc(a1-4)Glc = target: Glc(a1-4)Glc
Summary of the method: as §1

[6] = target: Glc(a1-4)Glc(a1-4)Glc(a1-4)Glc
Summary of the method: as §1

Glc(a1-6)Glc(a1-6)Glc = target: Glc(a1-6)Glc(a1-6)Glc
Summary of the method: as §1

[7] = target: Glc(a1-6)Glc(a1-6)Glc(a1-6)Glc
Summary of the method: as §1

Glc(b1-4)Glc = target: Glc(b1-4)Glc
Summary of the method: as §1

Glc(b1-6)Glc = target: Glc(b1-6)Glc
Summary of the method: as §1

GlcA(b1-3)Gal = target: GlcA(b1-3)Gal
Summary of the method: as §1

B1: Latrophilin-3 (Homo sapiens), Q9HAR2 (protein)
chain: MWPSQLLIFMMLLAPIIHAFSRAPIPMAVVRRELSCESYPIELRCPGTDVIMIESANYGRTDDKICDSDPAQMENIRCYLPDAYKIMSQRCNNRTQCAVVAGPDVFPDPCPGTYKYLEVQYECVPYKVEQKVFLCPGLLKGVYQSEHLFESDHQSGAWCKDPLQASDKIYYMPWTPYRTDTLTEYSSKDDFIAGRPTTTYKLPHRVDGTGFVVYDGALFFNKERTRNIVKFDLRTRIKSGEAIIANANYHDTSPYRWGGKSDIDLAVDENGLWVIYATEQNNGKIVISQLNPYTLRIEGTWDTAYDKRSASNAFMICGILYVVKSVYEDDDNEATGNKIDYIYNTDQSKDSLVDVPFPNSYQYIAAVDYNPRDNLLYVWNNYHVVKYSLDFGPLDSRSGQAHHGQVSYISPPIHLDSELERPSVKDISTTGPLGMGSTTTSTTLRTTTLSPGRSTTPSVSGRRNRSTSTPSPAVEVLDDMTTHLPSASSQIPALEESCEAVEAREIMWFKTRQGQIAKQPCPAGTIGVSTYLCLAPDGIWDPQGPDLSNCSSPWVNHITQKLKSGETAANIARELAEQTRNHLNAGDITYSVRAMDQLVGLLDVQLRNLTPGGKDSAARSLNKAMVETVNNLLQPQALNAWRDLTTSDQLRAATMLLHTVEESAFVLADNLLKTDIVRENTDNIKLEVARLSTEGNLEDLKFPENMGHGSTIQLSANTLKQNGRNGEIRVAFVLYNNLGPYLSTENASMKLGTEALSTNHSVIVNSPVITAAINKEFSNKVYLADPVVFTVKHIKQSEENFNPNCSFWSYSKRTMTGYWSTQGCRLLTTNKTHTTCSCNHLTNFAVLMAHVEVKHSDAVHDLLLDVITWVGILLSLVCLLICIFTFCFFRGLQSDRNTIHKNLCISLFVAELLFLIGINRTDQPIACAVFAALLHFFFLAAFTWMFLEGVQLYIMLVEVFESEHSRRKYFYLVGYGMPALIVAVSAAVDYRSYGTDKVCWLRLDTYFIWSFIGPATLIIMLNVIFLGIALYKMFHHTAILKPESGCLDNIKSWVIGAIALLCLLGLTWAFGLMYINESTVIMAYLFTIFNSLQGMFIFIFHCVLQKKVRKEYGKCLRTHCCSGKSTESSIGSGKTSGSRTPGRYSTGSQSRIRRMWNDTVRKQSESSFITGDINSSASLNREGLLNNARDTSVMDTLPLNGNHGNSYSIASGEYLSNCVQIIDRGYNHNETALEKKILKELTSNYIPSYLNNHERSSEQNRNLMNKLVNNLGSGREDDAIVLDDATSFNHEESLGLELIHEESDAPLLPPRVYSTENHQPHHYTRRRIPQDHSESFFPLLTNEHTEDLQSPHRDSLYTSMPTLAGVAATESVTTSTQTEPPPAKCGDAEDVYYKSMPNLGSRNHVHQLHTYYQLGRGSSDGFIVPPNKDGTPPEGSSKGPAHLVTSL
glycan array binding signal (z-score) [1]: -1.31 | glycan array binding signal (z-score) (GalNAc(b1-3)Gal): 0.242 | glycan array binding signal (z-score) [2]: -1.27 | glycan array binding signal (z-score) [3]: 2.19 | glycan array binding signal (z-score) [4]: -0.194 | glycan array binding signal (z-score) (GalNAc(b1-3)GalNAc): 0.417 | glycan array binding signal (z-score) (GalNAc(b1-4)Gal(b1-4)Glc): -1.53 | glycan array binding signal (z-score) (GalNAc(b1-4)GlcNAc): 0.957 | glycan array binding signal (z-score) [5]: 0.616 | glycan array binding signal (z-score) (GalNAc(b1-4)GlcNAc6S): -0.194 | glycan array binding signal (z-score) (GalNAc(b1-6)GalNAc): 1.6 | glycan array binding signal (z-score) (GalNAc3S(b1-4)GlcNAc): 0.63 | glycan array binding signal (z-score) (GalNAc3S(b1-4)GlcNAc3S): 0.37 | glycan array binding signal (z-score) (GalNAc4S6S(b1-4)GlcNAc): 1.42 | glycan array binding signal (z-score) (GalNAc6S(b1-4)GlcNAc): 3.81 | glycan array binding signal (z-score) (Glc(a1-4)Glc): -0.053 | glycan array binding signal (z-score) [6]: -0.335 | glycan array binding signal (z-score) (Glc(a1-6)Glc(a1-6)Glc): -0.086 | glycan array binding signal (z-score) [7]: -0.465 | glycan array binding signal (z-score) (Glc(b1-4)Glc): -0.632 | glycan array binding signal (z-score) (Glc(b1-6)Glc): -0.237 | glycan array binding signal (z-score) (GlcA(b1-3)Gal): -0.001
